PubChem BioAssay AID686937, Drosophila RNAi Screening Center | 2013
In all, the deposit lists about 23,000 reagents; this is a random part of those that have a named target and a result. 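Reduced-secretion tags in replicate 1 do not always agree with the z-scores; no criterion for assigning the tags was given.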 A plus sign joins genes that one reagent is predicted to hit. Not all columns of the deposit are shown. No sequences are given here. Not stated in the record: the amount of reagent.

Test: 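Genes in the fly needed for secretion of protein constitutively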 (primary screen)
Cells: Drosophila S2 cells expressing secreted horseradish peroxidase
Knock-down reagent: long dsRNA against Drosophila genes
Time to read-out: about 5.5 days (5 days dsRNA, then 12 h reporter induction)
Conditions: reporter expression induced after 5 days of dsRNA, read 12 h later; inducer not stated
Detection: 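Chemiluminescent measurement of peroxidase in the medium 12 h after reporter induction, following 5 days of dsRNA, given as a z-score per plate; higher means more secretion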
Scale: z-score: higher = more reporter secreted into medium

yuri (yuri gagarin) [DRSC01453]
- z-score, replicate 1: -1.37

yuri (yuri gagarin) [DRSC01454]
- z-score, replicate 1: -0.44

yuri (yuri gagarin) [DRSC01943]
- z-score, replicate 1: 0.64

yuri (yuri gagarin) [DRSC01972]
- z-score, replicate 1: 0.36

EMC5 (ER membrane protein complex subunit 5) [DRSC02469]
- z-score, replicate 1: -0.14

mat (materazzi) [DRSC08376]
- z-score, replicate 1: 0.6

mat (materazzi) [DRSC22841]
- z-score, replicate 1: -0.15

Pex3 (Peroxin 3) [DRSC10731]
- z-score, replicate 1: 0.47

AIF (Apoptosis inducing factor) [DRSC00696]
- z-score, replicate 1: 0.35

Sgs3 (Salivary gland secretion 3) [DRSC11280]
- z-score, replicate 1: 0.54

nht (no hitter) [DRSC01976]
- z-score, replicate 1: 0.16

CG4036 [DRSC02735]
- z-score, replicate 1: 0

lectin-28C [DRSC03010]
- z-score, replicate 1: 0.37

CG33017 [DRSC06573]
- z-score, replicate 1: -0.06

CG33017 [DRSC06574]
- z-score, replicate 1: 0.31

CG13720 [DRSC08329]
- z-score, replicate 1: 0.18

Ctns (Cystinosin) [DRSC15175]
- z-score, replicate 1: 0.35

CG34253 + lncRNA:CR32194 [DRSC09531]
- z-score, replicate 1: -0.92

eIF4E3 (eukaryotic translation initiation factor 4E3) [DRSC10952]
- z-score, replicate 1: 0.24

CR4575 (pseudo) [DRSC18372]
- z-score, replicate 1: 0.15

CG5440 [DRSC00685]
- z-score, replicate 1: 0.02

Nhe3 (Na[+]/H[+] hydrogen exchanger 3) [DRSC03380]
- z-score, replicate 1: 0.17

CG8500 [DRSC16434]
- z-score, replicate 1: -0.01

CG6428 [DRSC18402]
- z-score, replicate 1: 0.42

Tgi (Tondu-domain-containing Growth Inhibitor) [DRSC09793]
- z-score, replicate 1: 0.57

Tgi (Tondu-domain-containing Growth Inhibitor) [DRSC09794]
- z-score, replicate 1: 0.57

Gprk2 (G protein-coupled receptor kinase 2) [DRSC16682]
- z-score, replicate 1: 0.26
